Test results as given in PMC5605756.

Amino acid sequences for entries named in this document (tags omitted). A change or cut given only in a name is not applied to a line headed by its entry.
UniProt Q00175: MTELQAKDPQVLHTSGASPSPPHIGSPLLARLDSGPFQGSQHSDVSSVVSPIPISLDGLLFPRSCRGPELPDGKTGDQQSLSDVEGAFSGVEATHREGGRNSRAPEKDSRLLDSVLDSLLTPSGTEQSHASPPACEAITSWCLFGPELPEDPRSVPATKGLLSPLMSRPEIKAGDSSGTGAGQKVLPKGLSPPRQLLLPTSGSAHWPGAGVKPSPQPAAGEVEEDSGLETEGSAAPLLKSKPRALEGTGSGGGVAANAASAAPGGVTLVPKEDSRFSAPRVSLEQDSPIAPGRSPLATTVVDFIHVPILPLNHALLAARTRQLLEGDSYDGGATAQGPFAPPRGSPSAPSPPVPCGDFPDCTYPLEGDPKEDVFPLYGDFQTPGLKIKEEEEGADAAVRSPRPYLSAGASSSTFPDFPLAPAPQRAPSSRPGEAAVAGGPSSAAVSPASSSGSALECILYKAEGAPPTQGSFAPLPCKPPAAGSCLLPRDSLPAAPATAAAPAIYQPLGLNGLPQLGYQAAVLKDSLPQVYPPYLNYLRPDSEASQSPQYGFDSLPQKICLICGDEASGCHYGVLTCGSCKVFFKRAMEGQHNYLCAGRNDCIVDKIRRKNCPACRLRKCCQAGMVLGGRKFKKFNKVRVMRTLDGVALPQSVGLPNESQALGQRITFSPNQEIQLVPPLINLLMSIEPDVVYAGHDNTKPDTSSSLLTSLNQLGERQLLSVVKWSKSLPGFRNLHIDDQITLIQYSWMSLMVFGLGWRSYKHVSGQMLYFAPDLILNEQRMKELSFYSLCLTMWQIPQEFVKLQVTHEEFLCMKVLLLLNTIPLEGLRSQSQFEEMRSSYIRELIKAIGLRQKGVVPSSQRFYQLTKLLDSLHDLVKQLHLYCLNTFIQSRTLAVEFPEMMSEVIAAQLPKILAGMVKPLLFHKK
UniProt P63101: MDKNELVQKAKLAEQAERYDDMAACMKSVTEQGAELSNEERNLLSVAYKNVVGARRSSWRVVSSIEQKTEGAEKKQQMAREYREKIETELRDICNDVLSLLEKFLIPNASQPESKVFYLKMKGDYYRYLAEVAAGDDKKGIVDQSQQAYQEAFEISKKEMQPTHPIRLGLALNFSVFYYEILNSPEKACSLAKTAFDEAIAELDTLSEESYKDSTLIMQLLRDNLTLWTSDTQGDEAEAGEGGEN
UniProt O88685: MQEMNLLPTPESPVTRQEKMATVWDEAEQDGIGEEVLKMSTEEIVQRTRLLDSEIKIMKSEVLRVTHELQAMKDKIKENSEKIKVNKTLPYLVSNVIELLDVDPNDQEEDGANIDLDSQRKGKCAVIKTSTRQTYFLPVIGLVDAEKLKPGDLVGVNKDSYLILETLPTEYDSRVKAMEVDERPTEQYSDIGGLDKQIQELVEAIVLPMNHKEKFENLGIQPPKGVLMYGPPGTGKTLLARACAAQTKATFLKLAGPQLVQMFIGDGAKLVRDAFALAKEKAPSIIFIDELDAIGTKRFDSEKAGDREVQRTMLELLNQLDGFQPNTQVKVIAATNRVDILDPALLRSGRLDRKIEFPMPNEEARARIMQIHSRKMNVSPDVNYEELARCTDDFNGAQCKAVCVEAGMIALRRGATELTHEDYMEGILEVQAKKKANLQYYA
UniProt Q04447: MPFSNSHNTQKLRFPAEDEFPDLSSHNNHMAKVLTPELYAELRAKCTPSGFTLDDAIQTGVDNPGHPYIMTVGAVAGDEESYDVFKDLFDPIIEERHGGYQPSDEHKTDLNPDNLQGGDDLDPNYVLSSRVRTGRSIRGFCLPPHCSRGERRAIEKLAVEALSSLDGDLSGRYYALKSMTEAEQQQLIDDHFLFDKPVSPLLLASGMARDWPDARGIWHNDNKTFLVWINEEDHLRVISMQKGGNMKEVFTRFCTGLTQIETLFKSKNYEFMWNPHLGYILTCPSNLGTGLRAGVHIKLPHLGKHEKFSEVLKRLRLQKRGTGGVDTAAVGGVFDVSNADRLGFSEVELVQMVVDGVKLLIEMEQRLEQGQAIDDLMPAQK
UniProt P02088: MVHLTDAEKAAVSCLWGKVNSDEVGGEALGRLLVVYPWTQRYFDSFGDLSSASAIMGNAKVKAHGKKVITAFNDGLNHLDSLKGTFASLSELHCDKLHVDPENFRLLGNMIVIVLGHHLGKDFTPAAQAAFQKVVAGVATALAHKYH
UniProt Q8VDM6: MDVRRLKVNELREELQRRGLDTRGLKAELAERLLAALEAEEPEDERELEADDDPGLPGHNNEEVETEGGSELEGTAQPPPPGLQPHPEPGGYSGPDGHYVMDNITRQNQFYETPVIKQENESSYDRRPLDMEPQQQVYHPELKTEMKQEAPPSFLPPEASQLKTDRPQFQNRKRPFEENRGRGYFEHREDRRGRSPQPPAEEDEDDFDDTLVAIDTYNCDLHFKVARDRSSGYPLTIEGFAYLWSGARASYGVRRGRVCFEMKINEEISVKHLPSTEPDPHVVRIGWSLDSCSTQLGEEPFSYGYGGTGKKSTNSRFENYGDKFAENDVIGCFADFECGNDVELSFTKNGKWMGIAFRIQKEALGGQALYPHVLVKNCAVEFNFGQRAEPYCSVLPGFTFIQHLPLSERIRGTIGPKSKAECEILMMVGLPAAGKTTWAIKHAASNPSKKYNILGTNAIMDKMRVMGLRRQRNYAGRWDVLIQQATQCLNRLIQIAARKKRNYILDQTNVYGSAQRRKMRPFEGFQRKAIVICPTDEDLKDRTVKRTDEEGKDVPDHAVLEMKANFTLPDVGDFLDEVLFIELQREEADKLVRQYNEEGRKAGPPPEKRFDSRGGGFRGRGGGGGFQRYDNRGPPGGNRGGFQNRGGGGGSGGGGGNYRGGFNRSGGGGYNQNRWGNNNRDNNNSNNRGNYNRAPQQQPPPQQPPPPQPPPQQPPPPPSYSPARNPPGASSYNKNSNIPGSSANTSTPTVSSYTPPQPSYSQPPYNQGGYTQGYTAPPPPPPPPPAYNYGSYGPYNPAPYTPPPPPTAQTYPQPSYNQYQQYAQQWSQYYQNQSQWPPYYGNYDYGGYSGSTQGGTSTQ
UniProt P63085: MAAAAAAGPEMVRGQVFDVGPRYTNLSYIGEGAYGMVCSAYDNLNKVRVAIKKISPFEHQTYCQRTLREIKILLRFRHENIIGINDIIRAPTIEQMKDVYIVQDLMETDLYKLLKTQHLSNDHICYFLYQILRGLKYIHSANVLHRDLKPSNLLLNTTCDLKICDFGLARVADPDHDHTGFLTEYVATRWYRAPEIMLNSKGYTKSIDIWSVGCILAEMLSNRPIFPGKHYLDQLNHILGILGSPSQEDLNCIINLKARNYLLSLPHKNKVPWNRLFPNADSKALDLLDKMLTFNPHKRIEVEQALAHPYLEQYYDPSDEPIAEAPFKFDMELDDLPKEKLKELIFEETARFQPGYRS
UniProt Q8BGT8: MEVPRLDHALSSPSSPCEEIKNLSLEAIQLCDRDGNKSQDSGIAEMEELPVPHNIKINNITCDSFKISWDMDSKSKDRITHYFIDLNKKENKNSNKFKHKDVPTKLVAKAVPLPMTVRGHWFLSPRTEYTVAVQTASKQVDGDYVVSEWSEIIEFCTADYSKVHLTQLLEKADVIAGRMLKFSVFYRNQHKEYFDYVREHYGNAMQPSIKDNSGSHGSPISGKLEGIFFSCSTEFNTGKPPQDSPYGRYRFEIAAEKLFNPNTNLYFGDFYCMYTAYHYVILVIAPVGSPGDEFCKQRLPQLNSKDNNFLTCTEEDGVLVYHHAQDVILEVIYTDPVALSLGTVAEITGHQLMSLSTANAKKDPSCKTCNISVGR
UniProt Q64332: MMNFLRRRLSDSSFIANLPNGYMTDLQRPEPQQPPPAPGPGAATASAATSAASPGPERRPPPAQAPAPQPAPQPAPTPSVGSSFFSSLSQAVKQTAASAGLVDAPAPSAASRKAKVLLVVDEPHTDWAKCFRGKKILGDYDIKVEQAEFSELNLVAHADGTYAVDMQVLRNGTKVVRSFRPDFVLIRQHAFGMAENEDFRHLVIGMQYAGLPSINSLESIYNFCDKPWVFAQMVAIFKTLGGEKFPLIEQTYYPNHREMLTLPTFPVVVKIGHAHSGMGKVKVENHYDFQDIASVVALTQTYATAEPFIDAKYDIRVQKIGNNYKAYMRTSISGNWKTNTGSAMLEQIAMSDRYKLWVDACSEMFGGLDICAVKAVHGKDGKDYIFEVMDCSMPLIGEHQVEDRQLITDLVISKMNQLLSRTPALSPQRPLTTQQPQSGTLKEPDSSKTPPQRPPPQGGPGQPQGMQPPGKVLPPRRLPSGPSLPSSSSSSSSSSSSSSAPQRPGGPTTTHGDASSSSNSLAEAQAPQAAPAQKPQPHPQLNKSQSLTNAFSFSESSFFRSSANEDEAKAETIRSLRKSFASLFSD
UniProt Q8JZP2: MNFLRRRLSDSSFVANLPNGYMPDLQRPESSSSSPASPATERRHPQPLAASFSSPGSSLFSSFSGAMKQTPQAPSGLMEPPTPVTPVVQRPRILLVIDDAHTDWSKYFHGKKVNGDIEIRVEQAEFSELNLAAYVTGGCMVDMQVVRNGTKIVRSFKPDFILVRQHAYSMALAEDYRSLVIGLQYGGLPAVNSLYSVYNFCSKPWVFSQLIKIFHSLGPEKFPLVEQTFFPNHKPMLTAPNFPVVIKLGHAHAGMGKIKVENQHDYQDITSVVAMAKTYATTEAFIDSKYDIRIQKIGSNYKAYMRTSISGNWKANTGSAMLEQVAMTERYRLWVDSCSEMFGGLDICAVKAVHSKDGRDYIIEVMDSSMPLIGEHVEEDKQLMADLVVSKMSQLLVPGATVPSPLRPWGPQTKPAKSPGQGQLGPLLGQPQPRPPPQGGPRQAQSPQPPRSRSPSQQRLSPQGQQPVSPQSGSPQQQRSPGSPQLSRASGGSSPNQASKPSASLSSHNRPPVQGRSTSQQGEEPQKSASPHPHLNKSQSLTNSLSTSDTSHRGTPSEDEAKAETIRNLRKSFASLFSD
UniProt P68372: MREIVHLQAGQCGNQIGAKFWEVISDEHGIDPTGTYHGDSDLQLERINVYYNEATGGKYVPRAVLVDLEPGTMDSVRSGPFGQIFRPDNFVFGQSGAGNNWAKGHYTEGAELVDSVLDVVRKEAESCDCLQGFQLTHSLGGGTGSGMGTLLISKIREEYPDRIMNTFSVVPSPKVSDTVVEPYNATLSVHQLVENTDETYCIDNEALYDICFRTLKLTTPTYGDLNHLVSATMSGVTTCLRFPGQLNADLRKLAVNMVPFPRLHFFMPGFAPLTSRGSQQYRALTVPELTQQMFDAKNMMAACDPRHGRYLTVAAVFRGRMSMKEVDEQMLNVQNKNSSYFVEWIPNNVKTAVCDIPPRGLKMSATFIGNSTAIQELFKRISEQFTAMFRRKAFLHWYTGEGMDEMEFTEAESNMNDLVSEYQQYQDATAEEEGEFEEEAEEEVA
UniProt P99024: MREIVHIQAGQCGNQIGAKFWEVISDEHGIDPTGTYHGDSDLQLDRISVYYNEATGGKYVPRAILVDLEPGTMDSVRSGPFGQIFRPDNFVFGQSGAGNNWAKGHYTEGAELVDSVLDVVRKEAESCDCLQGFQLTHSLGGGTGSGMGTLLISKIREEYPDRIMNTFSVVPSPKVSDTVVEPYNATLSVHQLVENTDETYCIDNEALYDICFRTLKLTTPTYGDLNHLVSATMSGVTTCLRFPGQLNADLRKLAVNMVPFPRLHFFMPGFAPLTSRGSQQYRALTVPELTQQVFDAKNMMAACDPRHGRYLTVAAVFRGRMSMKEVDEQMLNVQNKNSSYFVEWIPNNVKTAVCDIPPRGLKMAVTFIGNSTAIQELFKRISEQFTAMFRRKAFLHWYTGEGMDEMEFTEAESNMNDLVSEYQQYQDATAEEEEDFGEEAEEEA
UniProt Q922F4: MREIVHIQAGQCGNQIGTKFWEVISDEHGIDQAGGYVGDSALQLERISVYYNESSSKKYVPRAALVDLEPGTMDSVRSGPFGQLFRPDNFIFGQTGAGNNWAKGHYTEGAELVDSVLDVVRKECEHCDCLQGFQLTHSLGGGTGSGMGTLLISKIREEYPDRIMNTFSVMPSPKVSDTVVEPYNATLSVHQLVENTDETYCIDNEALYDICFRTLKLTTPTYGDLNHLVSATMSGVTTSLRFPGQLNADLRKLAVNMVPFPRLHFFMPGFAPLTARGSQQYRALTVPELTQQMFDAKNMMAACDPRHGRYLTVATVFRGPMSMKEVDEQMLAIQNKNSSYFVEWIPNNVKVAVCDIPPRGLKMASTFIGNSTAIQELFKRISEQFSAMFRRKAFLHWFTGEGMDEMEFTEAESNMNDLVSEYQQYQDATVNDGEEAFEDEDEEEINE

B1: Heterogeneous nuclear ribonucleoprotein D-like (protein, UniProt Q9Z130 1-301)
chain: MEDMNEYSNIEEFAEGSKINASKNQQDDGKMFIGGLSWDTSKKDLTEYLSRFGEVVDCTIKTDPVTGRSRGFGFVLFKDAASVDKVLELKEHKLDGKLIDPKRAKALKGKEPPKKVFVGGLSPDTSEEQIKEYFGAFGEIENIELPMDTKTNERRGFCFITYTDEEPVKKLLESRYHQIGSGKCEIKVAQPKEVYRQQQQQQKGGRGAAAGGRGGARGRGRGQGQNWNQGFNNYYDQGYGNYNSAYGGDQNYSGYGGYDYTGYNYGNYGYGQGYADYSGQQSTYGKASRGGGNHQNNYQPY
B2: Synaptogyrin-III (protein, UniProt Q8R191 1-229)
chain: MEGASFGAGRAGAAFDPVSFARRPQTLLRVVSWVFSIAVFGPIVNEGYVNSDSGPELRCVFNGNAGACRFGVVLGLGAFIACVAFLLLDVRFQQISSVRDRRRAVLLDLGFSGVWSFLWFVGFCFLTNQWQRTTPGPGTAQAGDAARAAIAFSFFSILSWVALTVKALQRFRLGTDMSLFATDQLGTGAAQAYPGYPVGSGVEGTETYQSPPFTETLDTSSKGYQVPAY
B3: Septin-5 (protein, UniProt Q9Z2Q6 1-369)
chain: MSTGLRYKSKLATPEDKQDIDKQYVGFATLPNQVHRKSVKKGFDFTLMVAGESGLGKSTLVHSLFLTDLYKDRKLLSAEERINQTVEILKHTVDIEEKGVKLKLTIVDTPGFGDAVNNSECWKPITDYVDQQFEQYFRDESGLNRKNIQDNRVHCCLYFISPFGHGLRPVDVGFMKALHEKVNIVPLIAKADCLVPSEIRKLKDRIREEIDKFGIHVYQFPECDSDEDEDFKQQDRELKESAPFAVIGSNTVVEAKGQRVRGRLYPWGIVEVENQAHCDFVKLRNMLIRTHMHDLKDVTCDVHYENYRAHCIQQMTSKLTQDSRMESPIPILPLPTPDAETEKLIRMKDEELRRMQEMLQKMKQQMQDQ
B4: Desmoglein-4 (protein, UniProt Q7TMD7 50-1041)
chain: EWIKFAAACREGEDNSKRNPIARIRSDCEVSQRITYRISGAGIDRPPYGVFTINPRTGEINITSVVDREITPLFLIHCRALNSRGEDLERPLELRVKVMDVNDNPPVFTQNVYTANIEENSDANALVVKLSATDADEDNHLNSKIAYKIISQEPAGAPMFMVNRYTGEVRTMSNFLDREQHSMYNLLVRGSDRDGATDGLSSECDCRIKILDVNDNFPILEKTSYSASIEENCLSSELIRLQAIDLDEEGTDNWLAQYSILSGNDGNWFEIQTDPKTNEGILKVVKMLDYEQEPNIYLSIGVRNQAEFHHSVASQFQMHSTPVRIQVVNVREGPTFSPSSMTFSLRGGMRGASLMNYVLGTYTAIDMDTGNPATNVRYVIGHDAGSWLKVDSRTGEIQFSREFDMKSKYITDGIYAAQILAIDDGSGRTATGTICIEIPDANDYCPVIYAESRSVCTHASSVRIYVNDHSFGSPFTFCVVDESPDIANIWDIRSINGTSAILMTEQTLSPGPYQIPILVKDSHNRACELPQTVLLDACFCDDHHVCLHSSTTGIYTGDITWVTDDMYGTVTDDGVRQSNVGLGPAGIGMIILGLLLLLLSPLLLLMCCCKRRQPEGLGTRFAPVPEGGEGVMQPWRIEGAHPEDRDVSNICVPMTASNTQDRIDSSEIYTNTYAGGGTVEGGVSGVELNTGVGTATGMVAAGATGTLRKRSSTIGTLREYQDTGMNMAFLDSYFSEKAYAYADEDEGRPANDCLLIYDHEGAGSPVGSIGCCSWIVDDLDESYIETLDPKFRTLAEICLDTEIEPFPSHQACIPISTDLPLLGPNYFVNESSGMTLSEAEFQAEMAAASEPMIHGDIIVTETYTTSDPCVQPTTIVFDSQIPPNVVVTETVMAPVYDVQGNICVPAEIANTHNVYYAERVVASPGIPDMGNSNISDACIGPVMSGGILVGPEIQVTQMMSPDIHISQTTGSTSPMTSQHRVTRYSNMHYSRQ
B5: Rab GDP dissociation inhibitor β (protein, UniProt Q61598 1-445)
chain: MNEEYDVIVLGTGLTECILSGIMSVNGKKVLHMDQNPYYGGESASITPLEDLYKRFKLPGQPPASMGRGRDWNVDLIPKFLMANGQLVKMLLFTEVTRYMDFKVIEGSFVYKGGKIYKVPSTEAEALASSLMGLFEKRRFRKFLVYVANFDEKDPRTFEGVDPKKTSMRDVYKKFDLGQDVIDFTGHSLALYRTDDYLDQPCCETINRIKLYSESLARYGKSPYLYPLYGLGELPQGFARLSAIYGGTYMLNKPIEEIIVQNGKVVGVKSEGEIARCKQLICDPSYVKDRVEKVGQVIRVICILSHPIKNTNDANSCQIIIPQNQVNRKSDIYVCMISFAHNVAAQGKYIAIVSTTVETKEPEKEIRPALELLEPIEQKFVSISDLFVPKDLGTDSQIFISRAYDATTHFETTCDDIKDIYKRMTGSEFDFEEMKRKKNDIYGED

Target: glutathione S-transferase-tagged mouse progestin receptor PR-A (mouse)
Test: affinity purification with mass spectrometry; GST-PRA or GST-PRB bound to R5020, immobilised on glutathione Sepharose 4B, incubated 1 h at 4°C with pooled female mouse hypothalamic homogenate; washed with TG-NaCl (20 mM Tris-HCl, 10% glycerol, 100 mM NaCl, pH 8.0); eluted with 250 mM glutathione; nano-LC-MS/MS, label-free; a hit has a ratio R5020/no ligand ≥2 and p < 0.05; only the target purified

Row | Molecule | binding
1 | B1 | no binding
2 | B2 | binds
3 | B3 | no binding
4 | B4 | binds

Target: glutathione S-transferase-tagged mouse progestin receptor PR-B (mouse) (UniProt Q00175)
Test: as above

Row | Molecule | binding
5 | 14-3-3 protein ζ/δ (from UniProt P63101 1-245) | binds
6 | 26S protease regulatory subunit 6A (from UniProt O88685 1-442) | binds
7 | Creatine kinase B-type (from UniProt Q04447 1-381) (enzyme) | no binding
8 | Hemoglobin subunit β-1 (from UniProt P02088 1-147) | no binding
9 | Heterogeneous nuclear ribonucleoprotein U-like protein 1 (from UniProt Q8VDM6 1-859) | binds
10 | Mitogen-activated protein kinase 1 (from UniProt P63085 1-358) (enzyme) | binds
11 | Phytanoyl-CoA hydroxylase-interacting protein-like (from UniProt Q8BGT8 1-375) | no binding
12 | Synapsin-I (from UniProt O88935 1-706) | binds
13 | Synapsin-II (from UniProt Q64332 1-586) | binds
14 | Synapsin-III (from UniProt Q8JZP2 1-579) | binds
15 | Tubulin β-4A chain (from UniProt Q9D6F9 1-444) | no binding
16 | Tubulin β-4B chain (from UniProt P68372 1-445) | no binding
17 | Tubulin β-5 chain (from UniProt P99024 1-444) | binds
18 | Tubulin β-6 chain (from UniProt Q922F4 1-447) | binds
19 | β-Actin-like protein 2 (from UniProt Q8BFZ3 1-376) | binds
20 | B5 | binds
21 | B1 | binds
22 | B2 | no binding
23 | B3 | binds
24 | B4 | no binding

These are yes or no findings as the source states them, for the method shown. In cells and extracts the contact can be indirect. Here binding means that the protein was enriched with, or labelled near, the bait; the list need not be complete. A no says only that the protein was not detected with the bait.
